In patent publication US6686450:
No constants are given. Whether binding was seen depends on the method and setting. Some binding calls cover weakened binding; strength is not graded here.

Amino acid sequences for entries named in this document (tags omitted). A change or cut given only in a name is not applied to a line headed by its entry.
UniProt P04386: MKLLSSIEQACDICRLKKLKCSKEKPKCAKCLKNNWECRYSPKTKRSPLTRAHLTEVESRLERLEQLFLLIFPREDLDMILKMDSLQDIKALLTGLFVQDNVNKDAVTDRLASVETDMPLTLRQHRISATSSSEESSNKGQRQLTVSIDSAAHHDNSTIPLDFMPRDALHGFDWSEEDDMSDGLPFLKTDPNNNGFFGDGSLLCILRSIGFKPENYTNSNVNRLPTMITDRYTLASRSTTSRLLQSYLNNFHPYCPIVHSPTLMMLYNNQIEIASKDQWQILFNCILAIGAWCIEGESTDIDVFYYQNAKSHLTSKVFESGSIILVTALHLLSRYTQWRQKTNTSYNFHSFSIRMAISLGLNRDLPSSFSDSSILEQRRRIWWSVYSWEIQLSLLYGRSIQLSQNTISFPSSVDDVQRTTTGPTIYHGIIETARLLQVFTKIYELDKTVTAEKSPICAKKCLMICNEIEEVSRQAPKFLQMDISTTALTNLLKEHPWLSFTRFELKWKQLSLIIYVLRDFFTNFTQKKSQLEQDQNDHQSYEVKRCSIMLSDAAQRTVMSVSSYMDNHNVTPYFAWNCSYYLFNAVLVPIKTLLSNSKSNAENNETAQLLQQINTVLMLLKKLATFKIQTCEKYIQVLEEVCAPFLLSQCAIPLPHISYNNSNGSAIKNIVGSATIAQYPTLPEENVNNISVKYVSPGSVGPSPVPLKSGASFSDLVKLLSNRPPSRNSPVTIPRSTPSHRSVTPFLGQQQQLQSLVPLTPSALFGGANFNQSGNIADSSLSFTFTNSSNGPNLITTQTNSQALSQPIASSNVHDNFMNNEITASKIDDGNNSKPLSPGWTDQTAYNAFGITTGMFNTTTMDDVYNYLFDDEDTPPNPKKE
UniProt Q9Y6J0: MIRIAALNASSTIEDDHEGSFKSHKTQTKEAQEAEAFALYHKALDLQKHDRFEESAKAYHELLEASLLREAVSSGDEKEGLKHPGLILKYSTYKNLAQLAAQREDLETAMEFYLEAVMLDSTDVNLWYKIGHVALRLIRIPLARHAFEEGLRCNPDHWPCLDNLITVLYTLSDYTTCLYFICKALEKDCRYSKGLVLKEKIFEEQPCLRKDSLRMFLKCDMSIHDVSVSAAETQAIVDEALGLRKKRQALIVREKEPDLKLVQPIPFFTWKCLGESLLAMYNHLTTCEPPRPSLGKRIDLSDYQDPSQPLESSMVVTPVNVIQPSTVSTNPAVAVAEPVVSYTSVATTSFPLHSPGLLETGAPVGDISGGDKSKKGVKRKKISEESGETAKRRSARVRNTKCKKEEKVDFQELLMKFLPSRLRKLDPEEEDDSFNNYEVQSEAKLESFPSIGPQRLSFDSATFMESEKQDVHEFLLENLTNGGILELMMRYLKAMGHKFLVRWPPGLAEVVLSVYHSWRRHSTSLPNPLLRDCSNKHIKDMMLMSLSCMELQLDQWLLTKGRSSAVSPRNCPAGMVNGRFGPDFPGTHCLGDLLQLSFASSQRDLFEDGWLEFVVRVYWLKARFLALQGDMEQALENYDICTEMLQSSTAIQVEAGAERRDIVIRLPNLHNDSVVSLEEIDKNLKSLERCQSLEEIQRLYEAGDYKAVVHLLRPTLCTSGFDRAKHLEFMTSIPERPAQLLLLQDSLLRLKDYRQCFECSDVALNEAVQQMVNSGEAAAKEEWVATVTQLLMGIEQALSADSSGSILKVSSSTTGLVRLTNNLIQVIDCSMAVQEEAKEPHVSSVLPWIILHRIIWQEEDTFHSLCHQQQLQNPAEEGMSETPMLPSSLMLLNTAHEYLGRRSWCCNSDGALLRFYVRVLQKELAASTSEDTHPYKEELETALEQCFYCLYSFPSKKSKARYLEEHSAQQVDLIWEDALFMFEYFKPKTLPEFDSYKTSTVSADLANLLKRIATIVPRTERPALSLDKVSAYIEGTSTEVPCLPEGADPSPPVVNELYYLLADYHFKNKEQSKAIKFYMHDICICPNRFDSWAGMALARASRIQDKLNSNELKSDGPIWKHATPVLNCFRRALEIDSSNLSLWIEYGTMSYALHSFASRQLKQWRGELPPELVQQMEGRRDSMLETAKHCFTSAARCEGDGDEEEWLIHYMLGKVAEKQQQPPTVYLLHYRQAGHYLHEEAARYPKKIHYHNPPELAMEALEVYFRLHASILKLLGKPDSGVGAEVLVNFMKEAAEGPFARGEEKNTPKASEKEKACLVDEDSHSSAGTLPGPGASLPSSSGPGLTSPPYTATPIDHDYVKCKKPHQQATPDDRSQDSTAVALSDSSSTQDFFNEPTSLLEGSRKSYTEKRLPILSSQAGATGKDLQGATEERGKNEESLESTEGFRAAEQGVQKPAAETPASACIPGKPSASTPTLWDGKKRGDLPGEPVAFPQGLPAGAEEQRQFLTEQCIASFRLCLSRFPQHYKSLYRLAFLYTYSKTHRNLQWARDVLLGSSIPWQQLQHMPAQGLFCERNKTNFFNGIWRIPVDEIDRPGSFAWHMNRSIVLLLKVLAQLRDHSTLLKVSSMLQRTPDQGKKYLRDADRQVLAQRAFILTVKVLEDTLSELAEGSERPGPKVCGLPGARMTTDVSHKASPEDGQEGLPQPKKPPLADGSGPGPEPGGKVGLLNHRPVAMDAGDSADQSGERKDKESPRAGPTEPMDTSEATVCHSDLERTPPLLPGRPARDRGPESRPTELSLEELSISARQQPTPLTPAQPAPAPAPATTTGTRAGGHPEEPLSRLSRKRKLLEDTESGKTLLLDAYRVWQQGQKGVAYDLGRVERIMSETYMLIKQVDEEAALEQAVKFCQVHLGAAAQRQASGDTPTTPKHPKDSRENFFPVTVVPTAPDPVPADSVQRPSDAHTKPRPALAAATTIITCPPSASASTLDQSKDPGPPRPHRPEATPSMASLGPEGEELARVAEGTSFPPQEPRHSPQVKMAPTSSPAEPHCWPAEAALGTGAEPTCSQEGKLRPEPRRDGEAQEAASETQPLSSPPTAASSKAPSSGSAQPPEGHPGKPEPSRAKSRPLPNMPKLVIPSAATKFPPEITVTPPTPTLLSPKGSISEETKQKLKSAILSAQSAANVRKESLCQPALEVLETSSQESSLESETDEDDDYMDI

Experiments:
[1] = molecular target: GAL4 DB - full length calcineurin Aβ2 wild type (UniProt P04386); experiment: mammalian two-hybrid in Jurkat T cells
[2] = molecular target: GAL4 DB - full length calcineurin Aβ2 wild type (UniProt P04386); experiment: mammalian two-hybrid (luciferase) in Jurkat T cells

## VP16 AD - Cabin 1-14 (from UniProt Q9Y6J0 2143-2220)
[1]
  binding: binds
[2]
  binding: binds
